These are yes or no findings as the source states them, for the method shown. Binding seen in cells or lysates may run through a third protein. Sequences can lack the tags named with a protein.

The target in this test is HisMax-p53 (human), P04637. Put plainly: pull-down; HEK293T cells co-expressing HisMax-p53 and HA-EFP (or C13/16S) or Myc-HERC5; lysates in buffer-A with 10 mM imidazole; Ni2+-NTA agarose 1 h at 4 °C, washed with 20 mM imidazole; immunoblot with anti-HA or anti-Myc. Particulars: remark: other sources report otherwise. Background: A western blot detects proteins with antibodies after separation by electrophoresis.

B1: Myc-HERC5, Q9UII4 1-1024 (enzyme)
chain: MERRSRRKSRRNGRSTAGKAAATQPAKSPGAQLWLFPSAAGLHRALLRRVEVTRQLCCSPGRLAVLERGGAGVQVHQLLAGSGGARTPKCIKLGKNMKIHSVDQGAEHMLILSSDGKPFEYDNYSMKHLRFESILQEKKIIQITCGDYHSLALSKGGELFAWGQNLHGQLGVGRKFPSTTTPQIVEHLAGVPLAQISAGEAHSMALSMSGNIYSWGKNECGQLGLGHTESKDDPSLIEGLDNQKVEFVACGGSHSALLTQDGLLFTFGAGKHGQLGHNSTQNELRPCLVAELVGYRVTQIACGRWHTLAYVSDLGKVFSFGSGKDGQLGNGGTRDQLMPLPVKVSSSEELKLESHTSEKELIMIAGGNQSILLWIKKENSYVNLKRTIPTLNEGTVKRWIADVETKRWQSTKREIQEIFSSPACLTGSFLRKRRTTEMMPVYLDLNKARNIFKELTQKDWITNMITTCLKDNLLKRLPFHSPPQEALEIFFLLPECPMMHISNNWESLVVPFAKVVCKMSDQSSLVLEEYWATLQESTFSKLVQMFKTAVICQLDYWDESAEENGNVQALLEMLKKLHRVNQVKCQLPESIFQVDELLHRLNFFVEVCRRYLWKMTVDASENVQCCVIFSHFPFIFNNLSKIKLLHTDTLLKIESKKHKAYLRSAAIEEERESEFALRPTFDLTVRRNHLIEDVLNQLSQFENEDLRKELWVSFSGEIGYDLGGVKKEFFYCLFAEMIQPEYGMFMYPEGASCMWFPVKPKFEKKRYFFFGVLCGLSLFNCNVANLPFPLALFKKLLDQMPSLEDLKELSPDLGKNLQTLLDDEGDNFEEVFYIHFNVHWDRNDTNLIPNGSSITVNQTNKRDYVSKYINYIFNDSVKAVYEEFRRGFYKMCDEDIIKLFHPEELKDVIVGNTDYDWKTFEKNARYEPGYNSSHPTIVMFWKAFHKLTLEEKKKFLVFLTGTDRLQMKDLNNMKITFCCPESWNERDPIRALTCFSVLFLPKYSTMETVEEALQEAINNNRGFG
Take B1: the binding entry was “no binding”.

Values taken from publication PMC4996943.
